Assay results reported in publication PMC8510580, “HspB8 prevents aberrant phase transitions of FUS by chaperoning its folded RNA-binding domain” (eLife, 2021).
Results are given in words; binding and its absence hold for the method and conditions named. Binding can be weak; no strength is given.

Sequences of proteins named here, by UniProt entry; tags and fusion partners are left off. A change or cut given only in a name is not applied to a line headed by its entry.
UniProt P35637: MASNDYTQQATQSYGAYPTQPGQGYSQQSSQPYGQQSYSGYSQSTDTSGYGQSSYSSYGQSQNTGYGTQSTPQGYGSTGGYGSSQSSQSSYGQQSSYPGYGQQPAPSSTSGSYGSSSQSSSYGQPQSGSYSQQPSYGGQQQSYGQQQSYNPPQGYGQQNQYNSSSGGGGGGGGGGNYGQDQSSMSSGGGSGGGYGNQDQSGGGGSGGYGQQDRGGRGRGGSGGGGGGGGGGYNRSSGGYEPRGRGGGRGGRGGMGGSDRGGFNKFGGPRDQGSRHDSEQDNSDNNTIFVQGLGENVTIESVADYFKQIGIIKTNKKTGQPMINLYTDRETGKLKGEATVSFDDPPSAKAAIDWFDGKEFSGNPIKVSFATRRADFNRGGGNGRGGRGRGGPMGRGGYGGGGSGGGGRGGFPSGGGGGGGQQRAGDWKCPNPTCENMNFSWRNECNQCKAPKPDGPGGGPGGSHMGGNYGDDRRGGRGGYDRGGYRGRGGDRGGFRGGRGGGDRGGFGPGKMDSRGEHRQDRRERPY

Target: FUS-G156E-K9-GFP (FUSm_K9) (human) (UniProt P35637)
Assay: cross-linking; XL-MS of FUSm (or FUSm_K9) mixed with the partner under condensate-inducing low salt (75 mM): low-salt mixture or dense phase separated by centrifugation; H12/D12 DSS, 30 min, 37°C; also 3 hr after formation and with an RNA oligonucleotide; both purified

- binding: binds
B1: HspB8-WT (natural protein, UniProt Q9UJY1 1-196, looked up)
chain: MADGQMPFSCHYPSRLRRDPFRDSPLSSRLLDDGFGMDPFPDDLTASWPDWALPRLSSAWPGTLRSGMVPRGPTATARFGVPAEGRTPPPFPGEPWKVCVNVHSFKPEELMVKTKDGYVEVSGKHEEKQQEGGIVSKNFTKKIQLPAEVDPVTVFASLSPEGLLIIEAPQVPPYSTFGESSFNNELPQDSQEVTCT
notes: small heat shock protein HspB8; IDR printed as AA1-71 and alpha-crystallin domain as AA72-196; The article's keywords name Human as organism; also called small heat shock protein HspB8; source: E. coli BL21 Codon RIL, purified (GST, PreScission cleavage, reverse GST, ResourceQ); not shown: GST, N-terminal, cleaved
